Structures can show the parent of a compound that is named as a salt. The list shows a part of the results. Hit calls seldom repeat between salt and free forms of one compound.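 In K562 cells expressing nanoluciferase-fused kinases, luminescence was recorded at 4 h intervals between 2 and 18 h, normalized as percent of control with DMSO at 100% and a positive control at 0%. A significant (2 sigma) signal drop marks a time point as decreased. The authors' rule for a hit is not shown and takes in more than the number of time points.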
What follows are compounds tested against CSF1R (UniProt P07333) (assay: kinase-Nluc reporter destabilization hit call (1 = scored as downregulated) (binary); higher = compound decreases kinase abundance). Conditions: K562; 2-18 h.

The chains behind the UniProt entries cited, without tags or fusion partners.
UniProt P07333, whole entry: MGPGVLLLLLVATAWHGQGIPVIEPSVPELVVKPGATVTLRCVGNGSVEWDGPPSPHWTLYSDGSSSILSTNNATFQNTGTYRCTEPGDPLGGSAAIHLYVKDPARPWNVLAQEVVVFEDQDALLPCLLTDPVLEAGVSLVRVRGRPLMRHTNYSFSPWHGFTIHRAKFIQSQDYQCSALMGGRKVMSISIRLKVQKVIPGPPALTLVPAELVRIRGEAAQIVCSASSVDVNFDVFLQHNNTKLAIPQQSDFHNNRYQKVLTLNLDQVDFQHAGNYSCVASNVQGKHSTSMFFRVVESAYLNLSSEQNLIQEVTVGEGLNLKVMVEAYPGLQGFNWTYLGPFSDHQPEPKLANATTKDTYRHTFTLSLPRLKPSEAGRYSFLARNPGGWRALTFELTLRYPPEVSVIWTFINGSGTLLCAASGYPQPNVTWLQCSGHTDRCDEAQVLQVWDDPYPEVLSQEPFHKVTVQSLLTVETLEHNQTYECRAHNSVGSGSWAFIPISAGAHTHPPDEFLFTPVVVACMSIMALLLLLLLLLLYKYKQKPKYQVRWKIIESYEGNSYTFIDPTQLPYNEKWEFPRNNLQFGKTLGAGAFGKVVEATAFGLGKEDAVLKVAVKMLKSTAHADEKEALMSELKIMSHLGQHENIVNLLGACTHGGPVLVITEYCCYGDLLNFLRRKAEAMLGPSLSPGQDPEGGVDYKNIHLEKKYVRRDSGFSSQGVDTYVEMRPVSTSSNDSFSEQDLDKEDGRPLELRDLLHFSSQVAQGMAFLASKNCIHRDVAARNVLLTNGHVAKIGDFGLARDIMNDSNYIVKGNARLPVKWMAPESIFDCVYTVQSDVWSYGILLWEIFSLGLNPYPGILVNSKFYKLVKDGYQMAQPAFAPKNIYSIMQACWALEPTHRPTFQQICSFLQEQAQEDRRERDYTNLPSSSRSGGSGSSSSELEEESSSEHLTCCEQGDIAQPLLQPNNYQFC

kinase-Nluc reporter destabilization hit call, inactive:
CC(C)(C)n1nc(Cc2cccc3ccccc23)c2c(N)ncnc21 (10 µM) 0
CC(C)CC(=O)Nc1n[nH]c2c1CN(C(=O)C1CCN(C)CC1)C2(C)C (2.5 µM) 0
Nc1ncnc2c1c(-c1ccc(Oc3ccccc3)cc1)cn2C1CCCC1 (2.5 µM) 0
CC(=O)NCC(=O)N1[C@@H]2CC[C@H]1c1ccc(Nc3ncc(C(F)(F)F)c(NC4CCC4)n3)cc12 (2.5 µM) 0
CN(C)C(=O)/C(C#N)=C/c1ccc(-c2nc3cnc4[nH]ccc4c3n2C2CCCCC2)o1 (10 µM) 0
COc1ccc2c(NC(=O)Nc3cccc(C(F)(F)F)n3)ccnc2c1 (10 µM) 0
CNC(=O)c1cccc(-c2ccc3c(N4CCOC[C@@H]4C)nc(N4CCOC[C@@H]4C)nc3n2)c1 [Vistusertib] (2.5 µM) 0
CNC(=O)c1ccccc1Nc1nc(Nc2ccc(N3CCOCC3)cc2OC)ncc1Cl (2.5 µM) 0
Cc1c(C(=O)N2CCOc3ccc(-c4ccc(N)nc4)cc3C2)ccc(S(C)(=O)=O)c1F (10 µM) 0
Cc1ccc(NC(=O)Nc2nnc(Sc3ncnc4cc(OCCCN5CCOCC5)ccc34)s2)cc1 (10 µM) 0
N#CC(=Cc1ccc(O)c(O)c1)C(=O)NCc1ccccc1 (mixture of isomers) (10 µM) 0
NC(=O)c1ccc2nc(-c3ccc(Oc4ccc(Cl)cc4)cc3)[nH]c2c1 (10 µM) 0
CNc1nc(-c2ccc3c(N)n[nH]c3c2)cc(N2C[C@@H](C(=O)NC3CCCCC3)CC[C@H]2C)n1 (10 µM) 0
Cc1nc(N)sc1-c1ccnc(Nc2ccc(N3CCOCC3)cc2)n1 (10 µM) 0
CCc1nc(-c2cccc(C)c2)c(-c2ccnc(NC(=O)c3ccccc3)c2)s1 (10 µM) 0
O=S(=O)(NCCNC/C=C/c1ccc(Br)cc1)c1cccc2cnccc12 [H-89 (dihydrochloride)] (10 µM) 0
CCn1cc(-c2ccnc3[nH]c(-c4cccc(CN(C)C)c4)cc23)c(-c2ccc(NC(=O)N(C)C)cc2)n1 (2.5 µM) 0
O=C1c2ccccc2-c2n[nH]c3cccc1c23 (10 µM) 0
C[C@]1(O)C[C@@H](c2nc(-c3ccc4ccc(-c5ccccc5)nc4c3)c3c(N)nccn32)C1 [Linsitinib] (2.5 µM) 0
C[C@H](CN(C)C)Oc1nc(Nc2cc3cccc(Cl)c3cn2)cnc1C#N (10 µM) 0
Cc1cc(C)c(/C=C2\C(=O)Nc3ccccc32)[nH]1 [Semaxinib] (10 µM) 0
COc1cc(OC)cc(-c2cc3cnc(N)nc3nc2NC(=O)NC(C)(C)C)c1 (10 µM) 0
CN(c1ncccc1CNc1nc(Nc2ccc3c(c2)CC(=O)N3)ncc1C(F)(F)F)S(C)(=O)=O (2.5 µM) 0
COc1ccc2c(C(=O)Nc3ccc(NC(=O)c4nn(C5CCN(C(=O)CC(C)(C)C#N)CC5)c5ccc(F)cc45)cc3Cl)cnn2c1 [Src Inhibitor 3] (2.5 µM) 0
Oc1ccc(-c2nc(-c3ccc(F)cc3)c(-c3ccncc3)[nH]2)cc1 (2.5 µM) 0
COc1cc(Nc2ncc3c(n2)-c2ccc(Cl)cc2C(c2c(F)cccc2OC)=NC3)ccc1C(=O)O [Alisertib] (2.5 µM) 0
O=c1c(-c2ccc(O)cc2)coc2cc(O)cc(O)c12 [Genistein] (10 µM) 0
CN1CCN(c2ccc(C(=O)Nc3n[nH]c4ccc(Cc5cc(F)cc(F)c5)cc34)c(NC3CCOCC3)c2)CC1 [Entrectinib] (2.5 µM) 0
CCN1CCN(Cc2ccc(C(=O)Nc3ccc(C)c(Oc4ccc5c(c4)CC(=O)N5)c3)cc2C(F)(F)F)CC1 (2.5 µM) 0

Retrieved by compound from the entries so far, two records:
kinase-Nluc reporter destabilization hit call, inactive:
CCN1CCN(Cc2ccc(C(=O)Nc3ccc(C)c(Oc4ccc5c(c4)CC(=O)N5)c3)cc2C(F)(F)F)CC1 (2.5 µM) 0
Cc1nc(N)sc1-c1ccnc(Nc2ccc(N3CCOCC3)cc2)n1 (10 µM) 0

Reference: the supplement of paper PMC12823440, “Inhibitors supercharge kinase turnover through native proteolytic circuits” (Nature, 2025)
